The effect of the compound repeats well; differences between the knockouts mostly do not.
Test system: HCC-38
Experiment: relative cell number vs DMSO control (72 h) (% of DMSO); higher = less growth inhibition (more cells)
Description: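 QMAP-Seq: a pool of 5 breast cancer cell lines (ZR-75-1, SKBR3, HCC-38, MDA-MB-231, BT-20), each carrying 12 doxycycline-inducible Cas9 sgRNA perturbations (11 knockouts plus non-targeting sgNT), was treated with compounds for 72 h at four 10-fold doses (10 nM-10 uM or 1 nM-1 uM range). Barcodes were amplified and sequenced, and cell number was interpolated from 293T spike-in standard curves. The result is expressed as % of the median of DMSO wells. Two biological replicates.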

CC(C)c1cc(-c2n[nH]c(=O)n2-c2ccc3c(ccn3C)c2)c(O)cc1O [Ganetespib]
Conditions	relative cell number
sgRNA knockout: sgATF3, 1 nM	89.1
sgRNA knockout: sgATF3, 10 nM	97
sgRNA knockout: sgATF3, 100 nM	27.4
sgRNA knockout: sgATF3, 1000 nM	21.1
sgRNA knockout: sgATF4, 1 nM	90.02
sgRNA knockout: sgATF4, 10 nM	107
sgRNA knockout: sgATF4, 100 nM	23.4
sgRNA knockout: sgATF4, 1000 nM	23.9
sgRNA knockout: sgATF6, 1 nM	98.5
sgRNA knockout: sgATF6, 10 nM	103
sgRNA knockout: sgATF6, 100 nM	27.1
sgRNA knockout: sgATF6, 1000 nM	24.3
sgRNA knockout: sgATG7, 1 nM	93.5
sgRNA knockout: sgATG7, 10 nM	101
sgRNA knockout: sgATG7, 100 nM	23.1
sgRNA knockout: sgATG7, 1000 nM	23.4
sgRNA knockout: sgERN1, 1 nM	88.3
sgRNA knockout: sgERN1, 10 nM	95.4
sgRNA knockout: sgERN1, 100 nM	22.6
sgRNA knockout: sgERN1, 1000 nM	21.3
sgRNA knockout: sgHSF1, 1 nM	90.6
sgRNA knockout: sgHSF1, 10 nM	76.9
sgRNA knockout: sgHSF1, 100 nM	18.7
sgRNA knockout: sgHSF1, 1000 nM	15.1
sgRNA knockout: sgHSF2, 1 nM	96.5
sgRNA knockout: sgHSF2, 10 nM	97.8
sgRNA knockout: sgHSF2, 100 nM	25.5
sgRNA knockout: sgHSF2, 1000 nM	22.5
sgRNA knockout: sgKEAP1, 1 nM	97
sgRNA knockout: sgKEAP1, 10 nM	102
sgRNA knockout: sgKEAP1, 100 nM	24.8
sgRNA knockout: sgKEAP1, 1000 nM	21.7
sgRNA knockout: sgNFE2L2, 1 nM	88.2
sgRNA knockout: sgNFE2L2, 10 nM	93.5
sgRNA knockout: sgNFE2L2, 100 nM	23.6
sgRNA knockout: sgNFE2L2, 1000 nM	20.1
sgRNA knockout: sgSLC35F2, 1 nM	84.9
sgRNA knockout: sgSLC35F2, 10 nM	87.4
sgRNA knockout: sgSLC35F2, 100 nM	23.6
sgRNA knockout: sgSLC35F2, 1000 nM	23.5
sgRNA knockout: sgXBP1, 1 nM	97.8
sgRNA knockout: sgXBP1, 10 nM	103
sgRNA knockout: sgXBP1, 100 nM	24.9
sgRNA knockout: sgXBP1, 1000 nM	22.8

O=C(Cc1ccc(-c2ccc(OCCN3CCOCC3)cc2)cn1)NCc1ccccc1 [KX2391]
Conditions	relative cell number
sgRNA knockout: sgATF3, 10 nM	144
sgRNA knockout: sgATF3, 100 nM	24.7
sgRNA knockout: sgATF3, 1000 nM	24.5
sgRNA knockout: sgATF3, 10000 nM	30.57
sgRNA knockout: sgATF4, 10 nM	142
sgRNA knockout: sgATF4, 100 nM	20.7
sgRNA knockout: sgATF4, 1000 nM	21.9
sgRNA knockout: sgATF4, 10000 nM	26.4
sgRNA knockout: sgATF6, 10 nM	129
sgRNA knockout: sgATF6, 100 nM	27.8
sgRNA knockout: sgATF6, 1000 nM	34.6
sgRNA knockout: sgATF6, 10000 nM	26
sgRNA knockout: sgATG7, 10 nM	133
sgRNA knockout: sgATG7, 100 nM	25.4
sgRNA knockout: sgATG7, 1000 nM	28.2
sgRNA knockout: sgATG7, 10000 nM	33.4
sgRNA knockout: sgERN1, 10 nM	143
sgRNA knockout: sgERN1, 100 nM	25.3
sgRNA knockout: sgERN1, 1000 nM	28.2
sgRNA knockout: sgERN1, 10000 nM	29.2
sgRNA knockout: sgHSF1, 10 nM	137
sgRNA knockout: sgHSF1, 100 nM	28
sgRNA knockout: sgHSF1, 1000 nM	30.6
sgRNA knockout: sgHSF1, 10000 nM	31.2
sgRNA knockout: sgHSF2, 10 nM	151
sgRNA knockout: sgHSF2, 100 nM	28.2
sgRNA knockout: sgHSF2, 1000 nM	24.4
sgRNA knockout: sgHSF2, 10000 nM	32.2
sgRNA knockout: sgKEAP1, 10 nM	132
sgRNA knockout: sgKEAP1, 100 nM	31.4
sgRNA knockout: sgKEAP1, 1000 nM	26.1
sgRNA knockout: sgKEAP1, 10000 nM	33.96
sgRNA knockout: sgNFE2L2, 10 nM	143
sgRNA knockout: sgNFE2L2, 100 nM	22.6
sgRNA knockout: sgNFE2L2, 1000 nM	23.36
sgRNA knockout: sgNFE2L2, 10000 nM	27.3
sgRNA knockout: sgSLC35F2, 10 nM	147
sgRNA knockout: sgSLC35F2, 100 nM	26.4
sgRNA knockout: sgSLC35F2, 1000 nM	29.1
sgRNA knockout: sgSLC35F2, 10000 nM	31.2
sgRNA knockout: sgXBP1, 10 nM	141
sgRNA knockout: sgXBP1, 100 nM	22.8
sgRNA knockout: sgXBP1, 1000 nM	24.7
sgRNA knockout: sgXBP1, 10000 nM	34.3
